## Library screen at single concentrations

The chains behind the UniProt entries cited, without tags or fusion partners. Residues count along the entry.
UniProt Q8IDJ8, 1-583: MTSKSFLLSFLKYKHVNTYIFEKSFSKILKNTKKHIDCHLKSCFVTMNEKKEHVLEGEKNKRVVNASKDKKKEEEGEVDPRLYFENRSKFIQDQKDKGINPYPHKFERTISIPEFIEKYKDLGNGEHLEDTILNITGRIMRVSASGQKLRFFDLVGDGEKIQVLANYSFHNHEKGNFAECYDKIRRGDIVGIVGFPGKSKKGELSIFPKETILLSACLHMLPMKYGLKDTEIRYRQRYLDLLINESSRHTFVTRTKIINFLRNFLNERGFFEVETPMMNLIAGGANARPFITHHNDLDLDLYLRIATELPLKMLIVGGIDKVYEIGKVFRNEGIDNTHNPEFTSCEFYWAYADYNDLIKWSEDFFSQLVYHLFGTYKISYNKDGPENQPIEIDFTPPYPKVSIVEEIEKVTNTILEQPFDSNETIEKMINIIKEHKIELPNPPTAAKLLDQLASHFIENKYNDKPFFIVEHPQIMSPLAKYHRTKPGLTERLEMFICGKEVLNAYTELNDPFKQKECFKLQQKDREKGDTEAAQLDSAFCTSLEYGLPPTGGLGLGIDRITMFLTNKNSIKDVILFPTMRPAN
UniProt P9WFT3, whole entry: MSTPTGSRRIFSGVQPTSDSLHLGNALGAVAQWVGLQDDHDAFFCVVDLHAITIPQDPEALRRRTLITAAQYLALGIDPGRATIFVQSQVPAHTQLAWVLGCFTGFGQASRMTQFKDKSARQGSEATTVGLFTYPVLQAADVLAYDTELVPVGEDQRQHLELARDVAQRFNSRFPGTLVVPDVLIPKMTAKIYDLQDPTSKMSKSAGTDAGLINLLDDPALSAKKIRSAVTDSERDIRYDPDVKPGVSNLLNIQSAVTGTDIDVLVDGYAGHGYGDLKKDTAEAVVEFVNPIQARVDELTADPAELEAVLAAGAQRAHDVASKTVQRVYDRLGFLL

The filed quantity is “Percent Effect” (%).
The record does not define 0% and 100%; most values in the screen are far below 50% and negative numbers occur (in some assays of this library far below -100).
The compounds are a random part of those screened.
Two or more numbers in one place are separate tests of the same structure; such repeats can differ widely.
A dash means the value is not listed here; it may have been measured.

PfKRS1: 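Enzyme assay of the cytosolic lysyl-tRNA synthetase in 384-well plates, read by luminescence. Target: Lysine-tRNA ligase, Plasmodium falciparum 3D7 (UniProt Q8IDJ8). Compounds at 30 µM. Direction is inferred from only a few compounds that gave an IC50; most scored high, so higher reads as stronger inhibition. About 69,000 compounds were tested under these conditions; 0.071% (about 49) showed 50% or more at least once.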
MtTrpRS: 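Tryptophan-tRNA ligase, Mycobacterium tuberculosis (UniProt P9WFT3). Enzyme assay of tryptophanyl-tRNA synthetase; the read-out is not stated. Concentration: 10 µM. Direction is not recorded; retested compounds ran higher, which suggests that high means inhibition. About 65,000 compounds were tested under these conditions; 0.098% (about 64) showed 50% or more at least once.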
Leishmania in macrophages: 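Cell assay of Leishmania donovani living inside macrophages; the read-out is not stated. Compounds at 30 µM. Higher reads as stronger inhibition (inferred: compounds with an IC50 in retests scored well above the rest). About 69,000 compounds were tested under these conditions; 1.5% (about 1,000) showed 50% or more at least once.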

compound | PfKRS1 | MtTrpRS | Leishmania in macrophages
NC(=O)CCNCc1c(Cl)cccc1N1CCCC1 | -0.2901% | -3.233% | 1.694%
O=C(O)C(F)(F)F.[H][C@@]12CN(CC)C[C@]1([H])[C@@H](OC)CCN2C(=O)c1cc(C)nn1CC | - | - | -33.02%
O=C(O)C(F)(F)F.[H][C@@]12CCC(=O)N(c3cnn(C)c3)[C@]1([H])CCN2CC1CCOCC1 | - | - | 10.88%
Cc1cccc2[nH]cc(CC(=O)N3CCC(Nc4cccnn4)CC3)c12 | -1.39% | 2.401% | 15.01%
CC(Cc1ccccc1F)NC(=O)CCc1nc(-c2nnc[nH]2)no1 (centres undefined) | 3.881% | 0.859% | 11.36%
Cc1cccc(CNC2CC3(CCN(CCO)CC3)c3ccccc32)n1 (centres undefined) | 5.406% | - | -
O=C(NCCc1cccnc1)C1CCCN(Cc2ccco2)C1 (centres undefined) | -3.537% | 2.344% | -19.49%
CS(=O)(=O)N1CCCC1CS(=O)(=O)c1ccccc1 (centres undefined) | 0.6892% | 3.985% | -4.88%
CCCN1CCC(CC(=O)N2CCC(C(O)c3nccn3C)CC2)CC1 (centres undefined) | 1.56% | -1.879% | 14.27%
CC(C)c1ncc(CN2C[C@@H](CN3CCCC3)[C@@H](CO)C2)cn1 | -2.383% | -5.853% | 7.002%
O=C(O)C(F)(F)F.[H][C@]12CN(Cc3cccc(Cl)c3)C[C@@]1([H])S(=O)(=O)CC[C@@H]2C(=O)NCC(C)C | - | - | -0.2344%
O=S(=O)(c1c(Cl)nc2sccn12)N1CCCC2(CCNC2)C1 (centres undefined) | 5.757% | -2.477% | 49.51%
COc1ccc(C2=Nn3c(CCN)nnc3-c3ccccc3C2)cc1 | 11.35% | 2.983% | 89.23%
c1cc(CN2C[C@@H]3OCCN(CCN4CCCC4)[C@@H]3C2)co1 | 7.191% | 0.1833% | -
Cc1cc(C)cc(OCC(=O)NC2CCN(S(C)(=O)=O)CC2)c1 | -6.898% | -5.356% | -12.14%
O=C(O)C(F)(F)F.O=C(O)C(F)(F)F.[H][C@@]12C[C@@H](Oc3ccccc3)CN1CCN(Cc1nccn1C)C2 | - | - | -30.33%
CCOc1ccc2[nH]c(=O)c(CN3CCC(n4cnnc4)CC3)cc2c1 | 6.127% | 2.001% | 23.73%
Cn1c(N2CC[C@H](O)C2)nc2cc(C(N)=O)ccc21 | 7.293% | -2.177% | 3.553%
COc1cc(F)c(C(=O)N2C[C@@H](CN(C)CCO)[C@@H](CO)C2)c(F)c1 | 3.484% | -0.404% | 31.94%
[H][C@@]12CCN(c3cc(Sc4cccs4)nc(N)n3)C[C@@]([H])(CC1)N2C | - | - | 2.015%
CCCOc1cc(Cl)c(CN2CCNC(C(=O)NC3CC3)C2)cc1OC (centres undefined) | 4.769% | -3.907% | -6.652%
[H][C@]12CC[C@]([H])(CN(C(=O)c3c[nH]c(=O)c(Cl)c3)C1)N(Cc1ccccc1)C2 | - | - | 21.49%
COc1cccc(CN2CCCCCC2c2cccs2)c1OC (centres undefined) | 4.314% | 1.321% | 14.77%
CC(C#N)CNC(=O)Nc1ccc(-c2cc[nH]n2)cc1 (centres undefined) | 3.25% | 1.514% | 24.22%
CCCc1cnc(C)nc1N1CCC2(CC1)CNC(=O)O2 | 3.108% | 1.5% | 12.28%
O=C(O)C(F)(F)F.[H][C@@]12C[C@H](C(=O)NCCN(C)C)[C@@]([H])(CN(C(=O)NC3CCCC3)C1)O2 | - | - | 1.362%
Cc1nn(C)c(N(C)C)c1CNC1CCOc2ccccc21 (centres undefined) | -1.069% | -6.842% | 22.37%
CC(NC(=O)NCC1(O)CCC1)c1ccc(OCC2CC2)c(F)c1 (centres undefined) | 3.749% | 5.191% | 22.9%
Cc1nc(C)c(C(C)NCc2c(C(C)C)nn(C)c2N(C)C)s1 (centres undefined) | 6.633% | 1.665% | -1.124%
COc1nn(C)c2c1CCCN(C(=O)c1ccc[nH]1)C2 | 0.2851% | -0.1285% | 19.69%
CN1CC[C@H]2[C@H](C[C@@H](CN3CCCC3)N2c2nccs2)C1 | 3.321% | - | -
CCCc1n[nH]c(C2CN(C(=O)c3cccnc3N(C)C)CCO2)n1 (centres undefined) | -0.1553% | 14.01% | -4.13%
CCNc1cc2c(nn1)CCN(C(=O)c1cc3nc(C)ccc3o1)C2 | 6.281% | 3.801% | 3.031%
N[C@H]1CN(C(=O)CCc2cc(Cl)no2)C[C@@H]1c1ccccc1 | -2.257% | -3.881% | -1.461%
CN(CCNc1cc(N2CCCC2CO)ncn1)Cc1ccccc1 (centres undefined) | -3.589% | -5.846% | -86.17%
CN(Cc1ccco1)C(=O)[C@H]1CSCN1C(=O)OC(C)(C)C | 4.74% | -0.4873% | 2.426%
O=S(=O)(NCC1CCN(c2cnccn2)CC1)c1cccs1 | -0.6187% | 5.428% | -24.95%
CCc1ccc(C(=O)Nc2cccc(CN3CCCC3C(N)=O)c2)cc1 (centres undefined) | 13.7% | 2.679% | 34.18%
Cc1cnn(CC2CN(Cc3ccc(C(N)=O)cc3)CCO2)c1 (centres undefined) | 2.055% | -1.266% | -14.13%
CC(CNC(=O)c1cnccn1)Oc1cccc(Br)c1 (centres undefined) | 4.806% | -0.2349% | 22.08%
COCCN(C)CCN1CC2(CCN(C3CCOC3)CC2)OC1=O (centres undefined) | 7.391% | 3.551% | 33.03%
O=C(CCC(=O)N1CCNC(=O)C1c1cccc(F)c1)NC1CCCC1 (centres undefined) | 6.629% | -1.563% | 19.23%
Cc1csc(Nc2nccnc2C2CCCN2C(=O)C(C)C)n1 (centres undefined) | 7.921% | 3.75% | -9.581%
COc1c(F)cc(F)cc1-c1nc2c([nH]1)CCNC2 | -3.263% | 6.238% | -19.87%
O=C(CSC1=NS(=O)(=O)c2cc(Cl)ccc2N1)c1ccccc1 | 3.701% | 8.482% | 6.38%
Cc1ccc2c(n1)N(CCN(C)C)CCN(Cc1c(C)noc1C)C2.O=C(O)C(F)(F)F.O=C(O)C(F)(F)F.O=C(O)C(F)(F)F | - | - | -61%
CN(C)C(=O)CN1CCC2(CCCN(Cc3cccn3C)C2)C1=O.O=C(O)C(F)(F)F (centres undefined) | - | - | 19.4%
Cc1cc(C)nc(C2CCCN2C(=O)c2cnccn2)n1 (centres undefined) | 2.63% | -5.367% | 20.15%
O=C1NC2(CCN(c3ncccn3)CC2)CC1c1cccnc1 (centres undefined) | 4.135% | -7.354% | -
Cc1cc(CN2CCN(C(=O)CCc3ccco3)CC2)on1 | 3.827% | -6.912% | 1.868%
O=C(O)C(F)(F)F.[H][C@@]12CCN(c3cccnc3)C[C@]1([H])CN(C(=O)c1cccn1C)C2 | - | - | 23.04%
COc1cccc(N2C(=O)CC3(CCNCC3)C2=O)c1.Cl | - | - | 16.8%
CC(Cn1cccn1)NCc1nc(-c2cccnc2)no1 (centres undefined) | 4.796% | -1.782% | -8.722%
Cc1oc(C(=O)O)cc1S(=O)(=O)Nc1ccc(Cl)c(Cl)c1 | 5.432% | 4.107% | 1.308%
O=C(NCc1cccnc1)Nc1cc(C(F)(F)F)c[nH]c1=O | 0.1468% | -2.6% | 15.06%
Cn1cc(CN2CCOC(CCNC(=O)c3ccsc3)C2)cn1 (centres undefined) | 3.341% | -4.534% | 9.587%
CCn1nc2c(cc1=O)CN(CC1CCCCO1)CC2 (centres undefined) | -3.922% | 4.68% | -8.552%
O=C(Nc1cc(C(F)(F)F)c[nH]c1=O)N1CCOCC1 | 2.545% | 3.771% | 20.06%
Cc1noc(C)c1-c1nc(N(C)CCN(C)C)ncc1-c1cnccn1 | 1.989% | -1.797% | 14.21% & 3.85%
O=C(CN(CC(O)c1ccc(F)cc1)C1CC1)NC1CCOCC1 (centres undefined) | 4.348% | 3.728% | 13.77%
Cc1noc2ncnc(N3CCC(O)(Cn4ccnc4)CC3)c12 | 2.1% | 7.006% | -26.85%

7 of the entries, repeated:

{"compound": "Cc1cc(CN2CCN(C(=O)CCc3ccco3)CC2)on1", "PfKRS1": 3.827, "MtTrpRS": -6.912, "Leishmania in macrophages": 1.868}
{"compound": "CC(C#N)CNC(=O)Nc1ccc(-c2cc[nH]n2)cc1", "stereo": "centres undefined", "PfKRS1": 3.25, "MtTrpRS": 1.514, "Leishmania in macrophages": 24.22}
{"compound": "O=S(=O)(c1c(Cl)nc2sccn12)N1CCCC2(CCNC2)C1", "stereo": "centres undefined", "PfKRS1": 5.757, "MtTrpRS": -2.477, "Leishmania in macrophages": 49.51}
{"compound": "O=C1NC2(CCN(c3ncccn3)CC2)CC1c1cccnc1", "stereo": "centres undefined", "PfKRS1": 4.135, "MtTrpRS": -7.354}
{"compound": "CCc1ccc(C(=O)Nc2cccc(CN3CCCC3C(N)=O)c2)cc1", "stereo": "centres undefined", "PfKRS1": 13.7, "MtTrpRS": 2.679, "Leishmania in macrophages": 34.18}
{"compound": "CCCc1n[nH]c(C2CN(C(=O)c3cccnc3N(C)C)CCO2)n1", "stereo": "centres undefined", "PfKRS1": -0.1553, "MtTrpRS": 14.01, "Leishmania in macrophages": -4.13}
{"compound": "CN(C)C(=O)CN1CCC2(CCCN(Cc3cccn3C)C2)C1=O.O=C(O)C(F)(F)F", "stereo": "centres undefined", "Leishmania in macrophages": 19.4}

Source: ChEMBL document CHEMBL3988442, “University of Dundee, Small-Polar-MMV Screening Library” (2021).